Experimental data as given in patent US6020121A (priority 1996, dated 2000).

System: alpha-hemolysin
Type: cell-based, Staphylococcus aureus

In the case of CCC[C@@H]1C[C@@H](C(=O)N[C@@H]([C@H]2O[C@H](SC)[C@H](O)[C@@H](O)[C@H]2O)[C@H](C)Cl)N(C)C1 [clindamycin], the “alpha-hemolysin activity (in words)” value is reported as “did not inhibit alpha-hemolysin activity”.
